Laboratory results from publication PMC7672443, “Structural basis of the XPB helicase–Bax1 nuclease complex interacting with the repair bubble DNA” (Nucleic Acids Research, 2020).
The comparison behind a weaker result is the experiment's own reference, which may not be listed here. For part of these data: For at least one entry, the source does not settle the construct or the ends of the probe.

Chains of the proteins cited; added tags and fusions are not shown. Where a name states a change or a piece, a line headed by the entry shows the natural chain unless it says otherwise. A line that says so, or that is headed by a name, gives the form on record, which may keep a tag or linker. Residues count along the entry.
UniProt Q970I2, 2-439 R205A/D206A/D207A: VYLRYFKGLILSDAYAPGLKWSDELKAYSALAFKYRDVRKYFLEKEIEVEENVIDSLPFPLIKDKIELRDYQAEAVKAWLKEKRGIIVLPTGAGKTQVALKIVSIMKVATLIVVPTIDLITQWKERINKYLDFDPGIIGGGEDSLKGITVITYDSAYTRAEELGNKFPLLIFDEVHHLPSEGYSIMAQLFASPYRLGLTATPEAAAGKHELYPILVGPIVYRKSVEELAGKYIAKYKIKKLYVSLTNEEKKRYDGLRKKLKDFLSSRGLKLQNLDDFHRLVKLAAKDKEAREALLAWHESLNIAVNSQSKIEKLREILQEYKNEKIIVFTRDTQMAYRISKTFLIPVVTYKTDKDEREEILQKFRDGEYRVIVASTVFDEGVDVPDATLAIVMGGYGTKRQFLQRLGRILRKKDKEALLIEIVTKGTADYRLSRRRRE
UniProt P23025: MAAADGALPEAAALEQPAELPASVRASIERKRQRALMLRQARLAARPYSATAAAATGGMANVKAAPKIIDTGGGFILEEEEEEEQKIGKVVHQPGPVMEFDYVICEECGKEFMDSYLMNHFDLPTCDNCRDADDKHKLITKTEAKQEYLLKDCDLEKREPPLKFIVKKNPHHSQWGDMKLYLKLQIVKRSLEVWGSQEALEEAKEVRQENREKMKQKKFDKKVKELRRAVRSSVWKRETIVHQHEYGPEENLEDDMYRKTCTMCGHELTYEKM
human XPB + human p52 + human p8, one chain, as listed by the source, chain 2 of 3: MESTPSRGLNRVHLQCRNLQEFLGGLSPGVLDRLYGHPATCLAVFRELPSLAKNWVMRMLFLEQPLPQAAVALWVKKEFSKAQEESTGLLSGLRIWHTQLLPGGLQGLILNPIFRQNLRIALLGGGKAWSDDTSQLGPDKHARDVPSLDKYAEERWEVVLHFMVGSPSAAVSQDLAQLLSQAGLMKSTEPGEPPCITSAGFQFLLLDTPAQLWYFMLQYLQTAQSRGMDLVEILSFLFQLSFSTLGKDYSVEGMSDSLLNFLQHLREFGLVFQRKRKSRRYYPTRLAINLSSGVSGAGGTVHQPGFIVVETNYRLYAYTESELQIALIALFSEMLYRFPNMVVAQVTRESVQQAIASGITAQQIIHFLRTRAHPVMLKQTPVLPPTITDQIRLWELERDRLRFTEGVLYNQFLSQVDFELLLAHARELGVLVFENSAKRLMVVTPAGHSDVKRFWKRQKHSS
human XPB + human p52 + human p8, one chain, as listed by the source, chain 1 of 3: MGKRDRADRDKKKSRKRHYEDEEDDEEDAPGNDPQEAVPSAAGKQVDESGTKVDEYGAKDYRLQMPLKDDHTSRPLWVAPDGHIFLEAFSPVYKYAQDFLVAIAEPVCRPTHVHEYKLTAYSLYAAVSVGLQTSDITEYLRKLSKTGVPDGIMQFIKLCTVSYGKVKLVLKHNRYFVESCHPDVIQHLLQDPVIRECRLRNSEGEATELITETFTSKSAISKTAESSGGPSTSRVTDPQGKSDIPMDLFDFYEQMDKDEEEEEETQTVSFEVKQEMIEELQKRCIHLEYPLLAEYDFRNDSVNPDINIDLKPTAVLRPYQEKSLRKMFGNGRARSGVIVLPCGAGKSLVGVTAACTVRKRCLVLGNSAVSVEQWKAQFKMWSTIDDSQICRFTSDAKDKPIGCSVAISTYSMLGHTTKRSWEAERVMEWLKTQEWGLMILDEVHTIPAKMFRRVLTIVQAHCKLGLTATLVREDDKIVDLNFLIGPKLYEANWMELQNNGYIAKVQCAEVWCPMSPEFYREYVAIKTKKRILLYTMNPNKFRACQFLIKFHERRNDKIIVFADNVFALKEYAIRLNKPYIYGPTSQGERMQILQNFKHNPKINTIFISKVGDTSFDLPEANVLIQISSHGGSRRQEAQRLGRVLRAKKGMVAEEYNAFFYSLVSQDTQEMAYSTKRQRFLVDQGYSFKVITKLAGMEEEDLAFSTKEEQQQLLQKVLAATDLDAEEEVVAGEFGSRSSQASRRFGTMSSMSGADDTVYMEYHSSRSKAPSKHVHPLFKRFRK
human XPB + human p52 + human p8, one chain, as listed by the source, chain 3 of 3: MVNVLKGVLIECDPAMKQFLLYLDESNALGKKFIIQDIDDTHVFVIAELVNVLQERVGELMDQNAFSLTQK

Tests used:
Assay in all cases: EMSA
[1] = target: StXPB RED/AAA R205A,D206A,D207A (Sulfurisphaera tokodaii) (UniProt Q970I2); details: EMSA: 25 mM Tris-Cl pH 7.5, 100 mM NaCl, 5% glycerol, 1 mM DTT, room temperature 40 min, 0.8 uM forked DNA or 0.3 uM bubble DNA, 4% TBE native gel, ethidium bromide, recombinant protein, residues 2-439, protein details: N-terminal His8 (removed)
[2] = target: StXPB ΔThM1 del270-280 (Sulfurisphaera tokodaii) (UniProt Q970I2); details: EMSA: 25 mM Tris-Cl pH 7.5, 100 mM NaCl, 5% glycerol, 1 mM DTT, room temperature 40 min, 0.8 uM forked DNA or 0.3 uM bubble DNA, 4% TBE native gel, ethidium bromide, recombinant protein, residues 2-439, protein details: N-terminal His8 (removed)
human XPA (human) = human XPA (human) (UniProt P23025); details: unstable complex; EMSA: 25 mM Tris-Cl pH 7.5, 100 mM NaCl, 5% glycerol, 1 mM DTT, room temperature 40 min; 0.8 uM forked DNA or 0.3 uM bubble DNA; 4% TBE native gel, ethidium bromide; recombinant protein; protein details: N-terminal His6-SUMO (removed)
[3] = test system: human XPB + human p52 + human p8; details: unstable complex, smear; EMSA: 25 mM Tris-Cl pH 7.5, 100 mM NaCl, 5% glycerol, 1 mM DTT, room temperature 40 min; 0.8 uM forked DNA or 0.3 uM bubble DNA; 4% TBE native gel, ethidium bromide; recombinant protein; protein details: N-terminal His6 (PreScission, removed)

Measured: binding result

TAGTCACAGCTGATTGCGCTCTGCTCCATAGT / TGATACTTCGAGAGCGCAATCAGCTGTGACTA [forked DNA]
binds more weakly: [1] | [2]; weaker than RED mutant | human XPA (human) | [3]

TAGTCACAGCTGATTTTTCTCTGCTCCATAGT / ACTATGGAGCAGAGTTTTTTCAGCTGTGACTA [bubble-5 DNA]
binds more weakly: [1]; significantly reduced | [2]; almost eliminated
